Data taken from US11957761B2, “Compounds having α4β7 integrin inhibition activity” (priority 2021, dated 2024).
At least one structure is not confirmed: it was looked up by name or label, or the drawing left a doubt.

What was measured:
[1] = tested on: DSS induced ulcerative colitis; experiment: Mouse dextran sodium sulfate (DSS) colitis model (Example 8); format: in vivo, Male C57BI/6 mice; settings: p.o.
[2] = Chemical stability in dry conditions, 3 months at 40° C. (Example 10); format: physicochemical; settings: dry (lyophilized) formulation
[3] = 1250 nmol/kg per dose from day −2
[4] = 10000 nmol/kg per dose from day −2

CC[C@H](C)[C@@H]1NC(=O)[C@H](CC(=O)O)NC(=O)[C@H](CC(C)C)NC(=O)c2ccc(-c3ccc(N4CCN(C(=O)c5ccccc5-c5ccccc5C(=O)N5CCN(c6ccc(-c7ccc8cc7CNC(=O)[C@@H]7CCCN7[C@H](C(=O)NC(C)(C)C)[C@H](C)NC(=O)[C@H]([C@@H](C)CC)NC(=O)[C@H](CC(=O)O)NC(=O)[C@H](CC(C)C)NC8=O)cc6)CC5)CC4)cc3)c(c2)CNC(=O)[C@@H]2CCCN2[C@H](C(=O)NC(C)(C)C)[C@H](C)NC1=O [Compound 1, 2,2′-((S,S,S,S,S,S,12S,8S, 11S,14S,17S,18S)-((([1,1′-biphenyl]-2,2′-dicarbonyl)bis(piperazine-4,1-diyl))bis(4,1-phenylene))bis(14-((S)-sec-butyl)-18-(tert-butylcarbamoyl)-8-isobutyl-17-methyl-2,6,9,12,15-pentaoxo-3,7,10,13,16-pentaaza-1(2,1)-pyrrolidina-5(1,3)-benzenacyclooctadecaphane-56,11-diyl))diacetic acid]
body weight change score AUC compared with the DSS+vehicle group [1, 3]: significant reduction
colon length compared with the DSS vehicle group [1, 3]: significantly increased
whole colon Nishitani sum score compared with the DSS+vehicle group [1, 3]: significantly reduced
whole colon inflammation severity score significantly reduced compared with the DSS+vehicle group [1, 3]: not
DAI score AUC compared with the DSS+vehicle group [1, 4]: significant reduction
body weight change score AUC compared with the DSS+vehicle group [1, 4]: significant reduction
colon length compared with the DSS vehicle group [1, 4]: significantly increased
whole colon Nishitani sum score compared with the DSS+vehicle group [1, 4]: significantly reduced
whole colon inflammation severity score compared with the DSS+vehicle group [1, 4]: significantly reduced
Normalized purity after three months storage at 40° C. ([2]; pH 2-3): 99
Normalized purity after three months storage at 40° C. ([2]; pH 9): 99
